Several values for one entry are separate records, joined by “and”; a condition that tells them apart may be missing. Equal values may be shown once. Out of some 330,000 compounds screened, about 7,700 (2.3%) were called active. Inconclusive results, whose numbers are uncertain, are shown with a selection of clear calls. Calls come from the whole dose curve; as a rule, active = well fitted inhibition curve with a large enough effect; inconclusive = small, poorly fitted or top-dose-only effect, or effect the other way; inactive = flat fitted curve, though single readings scatter. Potencies beside an inconclusive call are fits to weak or partial responses and may not hold up.
test: qHTS screen for small molecules that inhibit ELG1-dependent DNA repair in human embryonic kidney (HEK293T) cells expressing luciferase-tagged ELG1; conditions: HEK293T ELG1-luciferase reporter, luminescence, 16 h, DNA damage induced by 5-fluorouridine; activity change, negative = inhibition: at 46.1 µM (top of the series); note: nearly all actives have a fitted effect of over 55% in size
How it was run: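 DMSO vehicle served as the neutral condition. Each well held 2,000 cells given 5-fluorouridine plus compound; after 16 hr at 37 °C/5% CO2, ONE-Glo was added and luciferase measured 30 min later.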
% is set by controls: 0 for no effect and ±100 for the full control effect; potency is the fitted concentration of half-maximal effect.

Row | Compound | activity change, negative = inhibition | Potency
1 | O=C(/C=C/c1ccccc1[N+](=O)[O-])N1CCN(c2ccccc2F)CC1 | inactive: -8.05% | –
2 | COCCNC(=O)c1cc(-c2ccccc2OC)on1 | – | inconclusive: 11.6 µM [activator, partial curve]
3 | O=C(c1ccccc1Cl)N1CCSCC1 | inactive: -7.53% | –
4 | COC(=O)Cc1[nH]n(-c2nc3ccccc3s2)c(=O)c1C(C)=O | – | inconclusive: 18.4 µM [activator, partial curve]
5 | COCCN1CC(CNC(=O)c2cc(COc3ccccc3SC)on2)CC1=O (centres undefined) | inactive: 21.7% | –
6 | CC(=O)Oc1ccc(OC(C)=O)c(SCCCCCCl)c1 | – | inconclusive: 6.51 µM [activator, single point]
7 | CC(=O)c1ccc(NC(=O)CCNS(=O)(=O)c2ccccc2F)cc1 | – | inconclusive: 6.51 µM [activator, partial curve, poor fit]
8 | N#Cc1nc(Cc2cccc3ccccc23)oc1N1CCCCC1 | – | inconclusive: 29.1 µM [inhibitor, partial curve, poor fit]
9 | O=S(=O)(c1cccc(-c2nnc(SCc3ccc(Cl)cc3)o2)c1)N1CCCCC1 | – | inconclusive: 13 µM [inhibitor, partial curve, poor fit]
10 | O=S(=O)(Nc1ccc(N=Nc2ccc(O)c3ccccc23)cc1)c1ccccc1 | inactive: -28.7% | –
11 | O=S1(=O)CCC(NC(=S)SCc2ccccc2Br)C1 (centres undefined) | inactive: 15.4% | –
12 | O=C(CNC(=O)c1ccccc1Cl)c1ccccc1 | – | inconclusive: 16.4 µM [activator, partial curve]
13 | O=c1[nH]cccc1-c1nc2ccccc2[nH]1 | – | inconclusive: 18.3 µM [activator, partial curve]
14 | O=C(NC1CCCCC1)c1c(O)nc2sccn2c1=O | – | inconclusive: 29.1 µM [activator, single point]
15 | Cc1cc(C(=O)NNC(=O)c2ccc(F)cc2)c(C)s1 | – | inconclusive: 29.1 µM [activator, single point]
16 | COc1ccc(S(=O)(=O)N(C)C)cc1NCC(=O)Nc1ccc(Br)cc1F | – | inconclusive: 9.2 µM [inhibitor, partial curve]
17 | CC1C/C(=C/c2ccncc2)C(=O)/C(=C/c2ccncc2)C1 (centres undefined) | – | active: 20.6 µM
18 | O=C(N/N=C\c1coc2ccccc2c1=O)c1ccco1 | inactive: -2.96% | –
19 | O=C(NCC(=O)N(c1cccnc1)C(C(=O)NC1CCCC1)c1cccs1)c1cccs1 (centres undefined) | inactive: 7.51% | –
20 | Cc1noc(C)c1S(=O)(=O)N1CCC(C(=O)NCCC2=CCCCC2)CC1 | inactive: -6.1% | –
21 | CCOc1cc(C(C(=O)NCC2CCCO2)N(C(=O)Cn2nnc3ccccc32)c2ccc(C(C)=O)cc2)ccc1O (centres undefined) | inactive: 14.5% | –
22 | C[C@H]1CCC(=O)N(CCSc2ccc(Br)cc2)CC1 | – | inconclusive: 14.6 µM [activator, partial curve, poor fit]
23 | COc1ccccc1NS(=O)(=O)c1cc(-c2cnc(C3CC3)o2)ccc1C | – | inconclusive: 20.6 µM [inhibitor, single point]

Row | Compound | activity change, negative = inhibition | Potency
24 | COc1ccc(C(=O)CCNc2cccc(Cl)c2)cc1 | – | inconclusive: 18.4 µM [activator, partial curve]
25 | NC(=O)COc1c(-c2ccc(Br)o2)oc2ccccc2c1=O | inactive: -25% | –
26 | CN1CCN(C(CNC(=O)c2ccc(Br)o2)c2ccc(F)cc2)CC1 (centres undefined) | – | inconclusive: 14.6 µM [activator, single point]
27 | Oc1ccc(/C=N/N2CCN(c3ccccn3)CC2)cc1 | – | inconclusive: 32.6 µM [activator, partial curve, poor fit]
28 | COc1ccccc1NS(=O)(=O)c1cc(NC(=S)NCC2CCCO2)ccc1C (centres undefined) | – | inconclusive: 20.6 µM [inhibitor, single point]
29 | O=C(Cn1nnc(-c2ccc(N3CCOCC3)cc2)n1)N1CCOCC1 | – | inconclusive: 20.6 µM [activator, partial curve]
30 | CCn1c(SCc2cccc(F)c2)nnc1-c1ccncc1 | – | active: 2.59 µM
31 | O=C(NC(NC(=S)Nc1c(Cl)cccc1Cl)C(Cl)(Cl)Cl)OCc1ccccc1 (centres undefined) | inactive: -16.6% | –
32 | CCCc1cc(=O)oc2c3c(cc(OCC(=O)NCc4ccccn4)c12)OC(C)(C)CC3 | – | inconclusive: 0.231 µM [inhibitor, partial curve, poor fit]
33 | CC1Cc2ccccc2N1C(=O)CSc1ccccc1 (centres undefined) | – | inconclusive: 13 µM [activator, partial curve, poor fit]
34 | Oc1csc(Cc2nc(-c3ccccc3F)cs2)n1 | – | inconclusive: 11.6 µM [activator, partial curve]
35 | c1ccc2c(N3CCCCC3)nc(N3CCCC3)nc2c1 | – | inconclusive: 23.1 µM [inhibitor, partial curve, poor fit]
36 | C=CCOc1ccc(CNn2cn[nH]c2=S)cc1OCC | inactive: 0.725% | –
37 | Cc1c(NC(=S)N/N=C\c2ccccc2O)c(=O)n(-c2ccccc2)n1C | – | inconclusive: 18.4 µM [inhibitor, partial curve, poor fit]
38 | Cc1ccc(S(=O)(=O)Nc2cc(=O)[nH]c3c2CCC3)cc1 | – | inconclusive: 4.61 µM [activator, partial curve]
39 | O=c1oc2cc(OCCO)ccc2c2c1CCCC2 | – | inconclusive: 29.1 µM [activator, partial curve, poor fit]
40 | Cc1ccc(C)c(S(=O)(=O)N2CCN(C(=O)CCCc3c[nH]c4ccccc34)CC2)c1 | – | inconclusive: 25.1 µM [inhibitor, single point]
41 | CCOC(=O)/C(=N/Nc1ccc(OC)cc1)Sc1nnc(CCc2ccccc2)n1-c1ccccc1 | – | inconclusive: 23.1 µM [activator, partial curve, poor fit]
42 | CCCC1(C(=O)OCC)NC(c2ccc(N(C)C)cc2)C2C(=O)N(c3ccc4c(c3)OCCO4)C(=O)C21 (centres undefined) | – | inconclusive: 20.6 µM [inhibitor, partial curve]
43 | Clc1ccc2oc(-c3ccccc3)cc(=NCCCN3CCOCC3)c2c1 | – | inconclusive: 4.11 µM [activator, full curve]
44 | Cc1cc(NC(=O)C(=O)NCCN2CCN(C(=O)c3cccs3)CC2)ccc1Br | – | inconclusive: 4.11 µM [inhibitor, full curve, poor fit]
45 | CC(=O)N1CCN(CC(C)(C)NS(=O)(=O)c2ccccc2)CC1 | – | inconclusive: 10.3 µM [activator, partial curve, poor fit]
46 | Cc1ccc2c(c1)c1c3n2CCCNC3CCC1 (centres undefined) | inactive: 18.8% | –

Looked up above.
CN1CCN(C(CNC(=O)c2ccc(Br)o2)c2ccc(F)cc2)CC1 (centres undefined) – Potency: inconclusive: 14.6 µM [activator, single point]
CCCC1(C(=O)OCC)NC(c2ccc(N(C)C)cc2)C2C(=O)N(c3ccc4c(c3)OCCO4)C(=O)C21 (centres undefined) – Potency: inconclusive: 20.6 µM [inhibitor, partial curve]

Remaining list, next part:

Row | Compound | activity change, negative = inhibition | Potency
47 | Cc1cc(C)n(-c2ccc(NC(=O)C3CCN(Cc4ccccn4)CC3)cc2)n1 | inactive: 21.2% | –
48 | COc1ccccc1NC(=O)C(=O)N1N=C(C(C)C)CC1(O)C(F)(F)F (centres undefined) | inactive: 0.098% | –
49 | Cc1cc(C2=NNC(=NC3CC3)SC2)c(C)n1-c1ccccc1F | – | inconclusive: 0.231 µM [activator, partial curve]
50 | COc1ccc(S(=O)(=O)N(C)C)cc1NC(=O)CCCSc1ccccc1 | – | inconclusive: 29.1 µM [inhibitor, single point]
51 | CCOc1cc(CNCCc2ccccc2)ccc1OCC(=O)NC(C)(C)C | inactive: 11.2% | –
52 | CC[C@@]1(c2ccccc2OC)ON(c2ccccc2C(F)(F)F)C1=O | – | inconclusive: 29.1 µM [inhibitor, single point]
53 | CCC(C)[C@H](NC(=O)NCc1ccc(Cl)cc1)C(=O)O (some centres undefined) | – | inconclusive: 3.26 µM [activator, full curve, poor fit]
54 | COc1ccc(NC(=S)Nc2ccccc2)cn1 | inactive: 11.1% | –
55 | COc1ccc(/C=C2\CCOC2=O)cc1 | – | inconclusive: 20.6 µM [activator, single point] and inconclusive: 13 µM [activator, partial curve]
56 | COc1ccccc1N1CCN(C(CNC(=O)c2ccc3c(c2)OCO3)c2cccnc2)CC1 (centres undefined) | inactive: -12.4% | –
57 | CCC(O)CNC(=O)CCc1nnc(C2(c3ccc(Cl)cc3)CCC2)o1 (centres undefined) | – | inconclusive: 23.1 µM [activator, partial curve, poor fit]
58 | COc1cccc(CNC(=O)C(NS(=O)(=O)c2ccc3c(c2)CCN3C(C)=O)C(C)C)c1 (centres undefined) | – | inconclusive: 16.4 µM [activator, partial curve, poor fit]
59 | Cc1c(CCO)c(=O)n2c([nH]c3ccccc32)c1C#N | inactive: -23.3% | –
60 | COc1ccc(C(CC(=O)c2ccccc2)S(=O)(=O)c2ccccc2)cc1 (centres undefined) | – | inconclusive: 14.6 µM [activator, partial curve]
61 | CCOc1ccccc1N=Nc1c(C)[nH]n(C(N)=S)c1=O | inactive: -6.55% | –
62 | Cc1nc2cc(F)ccc2n1C1CCN(S(=O)(=O)c2ccccc2)CC1 | – | inconclusive: 23.1 µM [inhibitor, single point]
63 | C=CCNc1nc2c(c(=O)[nH]c(=O)n2C)n1CCOc1ccccc1 | inactive: -7.6% | –
64 | COc1ccc(/C=C2\SC(=O)N(CC(=O)NNC(=O)c3ccccc3O)C2=O)cc1OC | – | inconclusive: 18.4 µM [inhibitor, single point]
65 | COc1ccc(OC)c(NC(=O)c2ccc3c(c2)C(=O)N(CC2CCCO2)C3=O)c1 (centres undefined) | inactive: 17.5% | –
66 | COc1ccc(S(=O)(=O)Nc2cc3c4c(c2)CCC(=O)N4CCC3)cc1 | – | inconclusive: 2.06 µM [activator, partial curve, poor fit]
67 | CCC(C)Oc1cccc(C(=O)Nc2ccccc2N2CCOCC2)c1 (centres undefined) | – | inconclusive: 23.1 µM [inhibitor, partial curve, poor fit]
68 | COc1ccc(S(=O)(=O)Nc2cccc3c2O[C@H](CN(C)Cc2ccc(-c4ccccc4)cc2)[C@@H](C)CN([C@H](C)CO)C3=O)cc1 | inactive: -7.05% | –
69 | O=C(Nc1ccc(C2CC2(Cl)Cl)cc1)c1ccccc1Br (centres undefined) | – | inconclusive: 11.6 µM [activator, partial curve]

— PubChem BioAssay AID504467 (National Center for Advancing Translational Sciences (NCATS), 2011)
